Taken from: PubChem BioAssay AID652272 (Drosophila RNAi Screening Center, 2013)
The deposit covers about 21,000 reagents; shown is a random part of those that have a named target and a result. Of all reagents, 503 (2.4%) are marked active. 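Raw plate light values, not normalised; calls rest on replicate z-scores that were not deposited; hits include reporter decreases as well as increases.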 The record does not give: the amount of reagent, the time to read-out.

Purpose: 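Genome-wide knock-down search for components of Hedgehog signalling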 (primary screen)
System: Drosophila clone 8 (Cl8) cells
Reagent: long dsRNA against Drosophila genes
Measured: 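Firefly light from a Hedgehog-responsive ptc promoter reporter and Renilla reference light, both read on a plate reader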
Scale: firefly Hh reporter signal: higher = more ptc reporter light; Renilla reference signal: higher = more Renilla control light
Rule for the call: 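Called a hit if the two-replicate mean z-score lies below -2 or above +3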
Calls: active = hit: reporter lowered or raised; inactive = not a hit

no.	target gene	amplicon	firefly Hh reporter signal, replicate 1	firefly Hh reporter signal, replicate 2	firefly Hh reporter signal, replicate 3	Renilla reference signal, replicate 1	Renilla reference signal, replicate 2	Outcome
1	CG10874	DRSC00297	77885	90055		2395	2296	inactive
2	ATP8A	DRSC05421	1.27e5	2.16e5		3169	8853	inactive
3	ATP8A	DRSC06643	88188	62624		3732	2784	inactive
4	ATP8A	DRSC06644	52217	54426		1408	3604	inactive
5	CG3301	DRSC15471	98308	83401		3756	3130	inactive
6	HisCl1	DRSC14945	1.39e5	75110		4989	2928	inactive
7	esc	DRSC03529	90208	50737		3507	2365	inactive
8	Ctu1	DRSC07069	71968	37398		1905	4108	inactive
9	CG12923	DRSC06237	78038	60432		2098	4812	inactive
10	CG32266	DRSC08062	95288	2.31e5		3001	10089	inactive
11	CG12617	DRSC02176	69699	43175		2192	4924	inactive
12	Plap	DRSC00678	1.02e5	55666		4474	2745	inactive
13	CG42579	DRSC20391	6.75e5	2.70e5		38049	6566	inactive
14	CG32075	DRSC10622	36823	45397	46938	3584	3672	inactive
15	CG11584	DRSC19408	1.11e5	3.03e5		1996	12800	inactive
16	iPLA2-VIA	DRSC10699	1.34e5	47350		5155	1409	inactive
17	CG42570	DRSC09391	1.89e5			3524		inactive
18	CG17754	DRSC18131	88760	60763		2055	1539	inactive
19	CG9691	DRSC18441	88157	1.79e5		2365	7606	inactive
20	CG43101	DRSC05520	1.47e5	2.31e5		4131	9558	inactive
21	Or33a	DRSC03386	84652	45297		2101	4570	inactive
22	CG31233	DRSC15888	7.79e5	1.58e5		35717	2928	inactive
23	CG2681	DRSC18464	1.30e5	1.12e5		2224	3770	inactive
24	BBS8	DRSC00360	1.47e5	1.33e5		3189	3241	inactive
25	Neurl4	DRSC10638	1.06e5	44605		3932	1841	inactive
26	slpr	DRSC18225	89066	97213		2033	2106	inactive
27	dbr	DRSC00274	89988	61706		3720	3014	inactive
28	RIOK2	DRSC14413	5.25e5	74912		29764	2419	inactive
29	Whamy	DRSC14574	66179	1.19e5		2067	3414	inactive
30	Cyp6t2Psi	DRSC01840	1.81e5	2.02e5		4548	10418	inactive
31	RpL23A	DRSC08694	49850	35527		4765	2637	active
32	cnir	DRSC00499	2.11e5	76608		4789	7841	inactive
33	CG15602	DRSC19671	59625	1.22e5		2005	5805	inactive
34	CG32237	DRSC08312	80743	71075		8451	4740	inactive
35	CG32237	DRSC08315	80896	72017		9681	5706	inactive
36	CG15628	DRSC00256	3.68e5	68218		19283	3296	inactive
37	CG15628	DRSC00463	1.03e5	72781		2806	5840	inactive
38	PGRP-SB1	DRSC11090	1.18e5			1010	3456	inactive
39	Cyt-c-d	DRSC03309	89718	56515		2089	5348	inactive
40	TP53INP	DRSC08178	2.43e5	5.37e5	1.56e5	9129	34192	inactive
41	Nepl18	DRSC14879	1.01e5	1.15e5		3116	4325	inactive
42	CG14684	DRSC14907	88355	1.18e5		2700	3424	inactive
43	CG30486	DRSC06680	71973	45347		1609	3211	inactive
44	GstZ1	DRSC16478	1.41e5	91051		5088	3684	inactive
45	AlkB	DRSC19115	4.85e5	2.21e5		30231	5664	inactive
46	mgr	DRSC16099	55248	84752		1346	2394	inactive
47	CG14607	DRSC12551	61238	84932		1733	2634	inactive
48	Rab2	DRSC05017	1.16e5	47653		4416	2016	inactive
49	IntS12	DRSC15818	80665	1.06e5		2928	3346	inactive
50	ECSIT	DRSC12348	84102	1.17e5		3505	3308	inactive
51	CG5768	DRSC15870	1.20e5	1.27e5		4752	4825	inactive
52	Grip71	DRSC02042	67334	43677		1003	4394	inactive
53	CG34461	DRSC10767	56181	79152		3897	4672	inactive
54	CG34225	DRSC05270	1.02e5	2.42e5		3276	10564	inactive
55	CG11811	DRSC09862	48049	38963	57930	3587	4372	inactive
56	Atf3	DRSC17225	53978	43595		4022	1925	active
57	meso18E	DRSC20351	71025	1.64e5		1546	7580	inactive

As entered above.
ATP8A [DRSC05421], firefly Hh reporter signal, replicate 2 → 2.16e5
Entry of CG42579 [DRSC20391] under “Outcome”: inactive
CG42570 [DRSC09391], Outcome = inactive
Under “firefly Hh reporter signal, replicate 1”, CG32237 [DRSC08312] has 80743
For “firefly Hh reporter signal, replicate 1”, CG32075 [DRSC10622] reads 36823
RIOK2 [DRSC14413], firefly Hh reporter signal, replicate 2 = 74912
